{
  "sequences": {"note": "By UniProt entry, the sequences of proteins in these tests, tags left out. Where a name states a change or a piece, a line headed by the entry shows the natural chain unless it says otherwise.", "UniProt P18054": "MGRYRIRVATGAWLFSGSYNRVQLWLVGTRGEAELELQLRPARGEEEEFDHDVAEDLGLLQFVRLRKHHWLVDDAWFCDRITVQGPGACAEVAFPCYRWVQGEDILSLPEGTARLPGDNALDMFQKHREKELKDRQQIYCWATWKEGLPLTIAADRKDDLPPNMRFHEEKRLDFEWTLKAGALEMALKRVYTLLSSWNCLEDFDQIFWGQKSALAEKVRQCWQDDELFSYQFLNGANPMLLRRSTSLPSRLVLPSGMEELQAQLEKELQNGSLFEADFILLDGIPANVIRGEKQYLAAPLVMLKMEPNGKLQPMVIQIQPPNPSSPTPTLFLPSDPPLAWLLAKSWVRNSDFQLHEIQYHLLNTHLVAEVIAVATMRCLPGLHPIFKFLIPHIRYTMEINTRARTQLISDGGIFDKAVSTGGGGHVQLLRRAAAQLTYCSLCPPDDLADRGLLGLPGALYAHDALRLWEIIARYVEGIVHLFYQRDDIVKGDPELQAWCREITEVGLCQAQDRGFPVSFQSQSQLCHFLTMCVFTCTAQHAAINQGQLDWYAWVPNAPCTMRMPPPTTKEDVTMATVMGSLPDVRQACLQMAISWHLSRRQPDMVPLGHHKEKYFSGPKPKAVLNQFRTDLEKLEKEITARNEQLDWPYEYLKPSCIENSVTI"},
  "source": "PubChem BioAssay AID1671190",
  "about": "(National Center for Advancing Translational Sciences (NCATS), 2021)",
  "note": "Hit rate of the full screen: of about 580,000 compounds, about 6,100 (1.1%) were called active. Inconclusive means that the source gave no clear call. Such entries were picked first, then a sample of the others. Calls follow the shape of the dose curve; as a rule, active = well fitted inhibition curve with a large enough effect; inconclusive = small, poorly fitted or top-dose-only effect, or another doubt; inactive = no such curve, though single readings can be large or run the other way. Potencies beside an inconclusive call are fits to weak or partial responses and may not hold up. Potency is read from the fitted curve at half-maximal effect.",
  "data": [
    {"target": "Polyunsaturated fatty acid lipoxygenase ALOX12 (Homo sapiens) (UniProt P18054)", "assay": "Primary qHTS assay for inhibitors of human arachidonate 12S-lipoxygenase (ALOX12): Round 2", "conditions": "purified 12hLO, xylenol orange hydroperoxide absorbance; series mostly up to 108 µM", "how_it_was_run": "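Purified human 12hLO at 150 nM in 25 mM Hepes, 0.01% Triton X-100, pH 7.0, preincubated 15 min at room temperature with compound. Reaction started with 40 uM arachidonic acid, 30 min at room temperature. Hydroperoxide measured by Fe-xylenol orange, 573/405 nm absorbance ratio.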", "values": [
      {"molecule": "Cc1ccc(S(=O)(=O)c2ccc(NN)cc2)cc1", "Potency": "inactive"},
      {"molecule": "CCc1ccccc1NS(=O)(=O)c1ccc2c(c1)CC(=O)N2", "Potency": "inconclusive: 100 µM [inhibitor, partial curve, poor fit]"},
      {"molecule": "COCCNC(=O)c1ccc(C(=O)NCCOC)s1", "Potency": "inactive"},
      {"molecule": "CCn1c(NCc2c[nH]c3ccccc23)nc2ccccc21", "Potency": "inconclusive: 126 µM [inhibitor, partial curve, poor fit]"},
      {"molecule": "Cc1ccc(/C=C/c2onc(C)c2S(=O)(=O)N2CCC(C(=O)Nc3ccccc3C(F)(F)F)CC2)cc1", "Potency": "inactive"},
      {"molecule": "O=C(CCl)Nc1ncc(S(=O)(=O)c2ccc([N+](=O)[O-])cc2)s1", "Potency": "inconclusive: 44.7 µM [inhibitor, partial curve, poor fit]"},
      {"molecule": "COc1cc(/C=N/NC(=O)C(Cc2c[nH]c3ccccc23)NC(=O)OCc2ccccc2)cc([N+](=O)[O-])c1O", "note": "(configuration not stated)", "Potency": "inconclusive: 44.7 µM [inhibitor, partial curve, poor fit]"},
      {"molecule": "O=C(CCc1nc2ccc(Cl)cc2[nH]1)N1CCc2c(nc3cc(-c4ccccc4)[nH]n3c2=O)C1", "Potency": "inconclusive: 39.8 µM [inhibitor, partial curve, poor fit]"},
      {"molecule": "Cc1cc(Cl)ccc1OCCCC(=O)Nc1cccnc1", "Potency": "inconclusive: 8.91 µM [inhibitor, partial curve, poor fit]"},
      {"molecule": "CCCN(CCC)C(=O)c1ccc(CN2C(=O)NC3(CCS(=O)(=O)CC3)C2=O)cc1", "Potency": "inactive"},
      {"molecule": "CC(=O)c1ccc(N2CCN(c3ncnc4c3c(-c3ccccc3)cn4-c3ccc(Cl)cc3)CC2)cc1", "Potency": "inactive"},
      {"molecule": "Cc1ccc(NC(=O)CCc2nnc3ccc(NCc4ccco4)nn23)nc1", "Potency": "inactive"},
      {"molecule": "CC(C)NC(=O)c1sc2nc(-c3cccs3)cc(-c3cccs3)c2c1N", "Potency": "inactive"},
      {"molecule": "C(=N\\Nc1nc2ccccc2s1)/c1cccs1", "Potency": "inconclusive: 39.8 µM [inhibitor, partial curve]"},
      {"molecule": "O=c1cc(-c2ccccc2)cc(-c2ccccc2)n1O", "Potency": "inconclusive: 17.8 µM [inhibitor, partial curve, poor fit]"},
      {"molecule": "COc1ccc(C(=O)N[C@@H]2CN(C)C[C@H]2CN(C)C)c(C)c1", "Potency": "inactive"},
      {"molecule": "CC1(C(=O)NS(=O)(=O)c2ccc(Cl)cc2)CCN1C(=O)Cc1ccc(-c2ccccc2)cc1", "note": "(configuration not stated)", "Potency": "inconclusive: 44.7 µM [inhibitor, partial curve, poor fit]"},
      {"molecule": "CCOc1nc(Nc2ccc(OC)cc2)nc(OCC)n1", "Potency": "inconclusive: 5.62 µM [inhibitor, full curve, poor fit]"},
      {"molecule": "CCN1C(=O)C(Cc2ccccc2OC)c2ccccc21", "note": "(configuration not stated)", "Potency": "inconclusive: 126 µM [inhibitor, partial curve, poor fit]"},
      {"molecule": "O=S(=O)(c1ccc2nc(NCCN3CCN(c4ccccc4F)CC3)ccc2c1)N1CCCC1", "Potency": "inconclusive: 79.4 µM [inhibitor, single point]"},
      {"molecule": "O=C1N(Cc2ccccc2Cl)c2ccccc2C1(O)c1c[nH]c2ccccc12", "note": "(configuration not stated)", "Potency": "inconclusive: 44.7 µM [inhibitor, partial curve, poor fit]"},
      {"molecule": "COC(=O)CNC(=O)C1CCc2nnc(-c3ccc(Cl)cc3Cl)n21", "note": "(configuration not stated)", "Potency": "inconclusive: 3.16 µM [inhibitor, single point]"},
      {"molecule": "COC(=O)c1[nH]cnc1C(=O)c1ccccc1", "Potency": "inconclusive: 50.1 µM [inhibitor, partial curve, poor fit]"},
      {"molecule": "Cc1ccc(C)c(N(CC(=O)Nc2ccc(-c3nc4ccc(C)cc4s3)cc2)S(C)(=O)=O)c1", "Potency": "inactive"},
      {"molecule": "CC(C(=O)N(C)Cc1ccccc1)N(c1ccc(Oc2ccccc2)cc1)S(C)(=O)=O", "note": "(configuration not stated)", "Potency": "inactive"},
      {"molecule": "CCn1c(-c2c(Cl)c(C)nn2C)n[nH]c1=S", "Potency": "inconclusive: 112 µM [inhibitor, partial curve, poor fit]"},
      {"molecule": "Cc1cc2nc(-c3cccnc3SCC(=O)NCc3ccco3)[nH]c2cc1C", "Potency": "inconclusive: 56.2 µM [inhibitor, partial curve, poor fit]"},
      {"molecule": "O=C(CCN1C(=O)/C(=C\\c2ccccc2F)SC1=S)Nc1ccc(C(=O)O)c(O)c1", "Potency": "inconclusive: 44.7 µM [inhibitor, partial curve, poor fit]"},
      {"molecule": "O=C(CCC1CCN(c2cc(NC3CC3)ncn2)CC1)NCc1cc(F)cc(F)c1", "Potency": "inactive"},
      {"molecule": "O=C(COC(=O)c1ccccc1NC(=O)c1ccco1)Nc1ccc2c(c1)OCO2", "Potency": "inconclusive: 112 µM [inhibitor, single point]"},
      {"molecule": "COc1ccc(C(C)=O)cc1CS(=O)(=O)CC(=O)O", "Potency": "inactive"},
      {"molecule": "Cc1ccc(CSc2nnc(-c3cccnc3)n2N)cc1", "Potency": "inactive"},
      {"molecule": "N#C/C(=C\\c1ccc(-c2cccc(C(F)(F)F)c2)o1)c1nc2ccccc2[nH]1", "Potency": "inconclusive: 5.62 µM [inhibitor, full curve, poor fit]"},
      {"molecule": "Cc1ccc(S(=O)(=O)N2CCN(CCNC(=O)c3cccc(C(F)(F)F)c3)CC2)cc1", "Potency": "active: 28.2 µM"},
      {"molecule": "CC(C)(C)C1C=C(Sc2ccccc2)C(=O)O1", "note": "(configuration not stated)", "Potency": "inactive"},
      {"molecule": "CC(C)(C)SCC(=O)Nc1ccc2c(c1)CCC2", "Potency": "inactive"},
      {"molecule": "O=C(O)C(c1c[nH]c2cc(Cl)ccc12)N1CCN(Cc2cccs2)CC1", "note": "(configuration not stated)", "Potency": "inconclusive: 89.1 µM [inhibitor, single point]"},
      {"molecule": "S=C(NCCSc1ccc(Cl)cc1)Nc1ccccc1Cl", "Potency": "inconclusive: 63.1 µM [inhibitor, partial curve, poor fit]"},
      {"molecule": "CCCNc1c(NC(=O)Cc2ccc(OC)cc2)c(=O)oc2ccccc12", "Potency": "inactive"},
      {"molecule": "COC(=O)c1sc(N2C(=O)C(O)=C(C(=O)c3ccc(C)o3)C2c2ccc([N+](=O)[O-])cc2)nc1C", "note": "(configuration not stated)", "Potency": "inconclusive: 6.31 µM [inhibitor, partial curve, poor fit]"},
      {"molecule": "Cc1csc(NC(=O)CCSCCc2ccccn2)n1", "Potency": "inconclusive: 89.1 µM [inhibitor, single point]"},
      {"molecule": "CCN(Cc1cccc(OC)c1)CC1CCCN(CCc2cccc(OC)c2)C1", "note": "(configuration not stated)", "Potency": "inconclusive: 44.7 µM [inhibitor, partial curve, poor fit]"},
      {"molecule": "CCOC(=O)c1ccc(-c2ccc(C(=O)Nc3cccnc3)o2)cc1", "Potency": "inconclusive: 39.8 µM [inhibitor, partial curve, poor fit]"},
      {"molecule": "C[C@@H]1COc2cc(NCCO)ccc2S(=O)(=O)N1", "Potency": "inconclusive: 44.7 µM [inhibitor, partial curve, poor fit]"},
      {"molecule": "O=S(=O)(Nc1ccc(-c2ccc(N3CCCCCC3)nn2)cc1)c1ccc(Cl)s1", "Potency": "inconclusive: 2.51 µM [inhibitor, full curve, poor fit]"},
      {"molecule": "COc1cc(OC)cc(C(=O)NCC(=O)NCCN2C(=O)S/C(=C\\c3ccc4c(c3)OCO4)C2=O)c1", "Potency": "inconclusive: 112 µM [inhibitor, single point]"},
      {"molecule": "CCN1C(=O)C2(CCN(S(=O)(=O)c3ccc4c(c3)OCCO4)CC2)c2ccccc21", "Potency": "inactive"},
      {"molecule": "COc1ccccc1CNc1nc(-c2cc(C)n(C)c2C)cs1", "Potency": "inconclusive: 56.2 µM [inhibitor, partial curve, poor fit]"},
      {"molecule": "CCC(C)(C)C1CCC2(CC1)NC(=O)N(CC(=O)NC(C)CCc1ccccc1)C2=O", "note": "(configuration not stated)", "Potency": "inactive"},
      {"molecule": "COc1ccccc1N1Cc2ccccc2C1", "Potency": "inconclusive: 1.41 µM [inhibitor, single point]"},
      {"molecule": "O=c1c(-c2ccccc2)nc2cnc(Nc3ccccc3)nc2n1C[C@H]1CCCO1", "Potency": "inconclusive: 100 µM [inhibitor, single point]"},
      {"molecule": "NNc1nc2c(F)cc(F)cc2s1", "Potency": "active: 39.8 µM"},
      {"molecule": "CCCCn1c(N)c(N(CC)C(=O)c2ccc(Cl)c([N+](=O)[O-])c2)c(=O)[nH]c1=O", "Potency": "inconclusive: 50.1 µM [inhibitor, partial curve, poor fit]"},
      {"molecule": "COc1ccc(NC(=O)Cc2nnc(SCC(=O)NC3=NCCS3)n2C)cc1", "Potency": "inconclusive: 28.2 µM [inhibitor, partial curve, poor fit]"},
      {"molecule": "CNC(=O)C[C@H]1C(=O)N(c2ccc(Br)cc2)C[C@@H]1C", "Potency": "inconclusive: 35.5 µM [inhibitor, single point]"},
      {"molecule": "CCc1ccc2c(CN(C)CCOc3ccc(F)cc3)cc(=O)oc2c1", "Potency": "active: 44.7 µM"},
      {"molecule": "COc1ccc(-c2coc3cc(OCC(=O)N4CCN(c5ccc(F)cc5)CC4)ccc3c2=O)cc1", "Potency": "inactive"},
      {"molecule": "NC(=O)COc1ccc(/C=C2\\C(=O)ON=C2c2ccccc2)cc1", "Potency": "active: 7.08 µM"},
      {"molecule": "CCCCc1c(C)nc2ccc(C)cc2c1SCCC(=O)O", "Potency": "inconclusive: 44.7 µM [inhibitor, partial curve, poor fit]"},
      {"molecule": "COc1ccc(/C(C)=N/Nc2ccc(C(=O)O)cc2)cc1OC", "Potency": "inactive"},
      {"molecule": "Cc1ccc([N+](=O)[O-])c(OCCCNCC(C)O)c1", "note": "(configuration not stated)", "Potency": "inconclusive: 0.891 µM [inhibitor, full curve, poor fit]"},
      {"molecule": "Fc1ccc(Sc2ccccc2CNC2=NCCN2)cc1", "Potency": "inconclusive: 89.1 µM [inhibitor, partial curve, poor fit]"},
      {"molecule": "COc1cccc(N2C(=O)NC(=NC3CCCC3)C23CCN(CC2CCCCC2)C3)c1", "note": "(configuration not stated)", "Potency": "inconclusive: 100 µM [inhibitor, single point]"},
      {"molecule": "CN(Cc1ccccc1)c1oc(/C=C/c2ccccc2)nc1C#N", "Potency": "inconclusive: 35.5 µM [inhibitor, partial curve, poor fit]"},
      {"molecule": "CCN1CCN(c2ccc(S(=O)(=O)N3CCCCC3)cc2NC(=O)c2sccc2C)CC1", "Potency": "inconclusive: 44.7 µM [inhibitor, partial curve, poor fit]"},
      {"molecule": "COc1ccc(OC)c(NC(=O)CN2C(=O)CC(C)Sc3ccccc32)c1", "note": "(configuration not stated)", "Potency": "inactive"},
      {"molecule": "O=C(CN1C(=O)c2cccc3cccc1c23)Nc1ccc(S(=O)(=O)Nc2nccs2)cc1", "Potency": "inconclusive: 7.08 µM [inhibitor, partial curve, poor fit]"}
    ]}
  ]
}
